Measurements taken from the supplement of paper PMC9938546.
Counter-ions that a name gives are not always drawn. The list shows a part of the results. Plates or batches differ in their baseline, so values are only roughly comparable.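 HCT116-GFP is a human colorectal cancer cell line that carries a KRAS mutation, is microsatellite-unstable and always makes green fluorescent protein; the immune cells came from healthy donors. Live-cell imaging of the green signal stood in for cancer cell survival, and activated immune cells alone cut survival to about half.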

test system: HCT116-GFP; assay: HCT116-GFP viability (GFP intensity) relative to untreated HCT116-GFP monoculture control, co-culture with activated PBMCs; higher = less cancer cell killing; conditions: culture: co-culture with anti-CD3/IL2 activated PBMCs 1:1; 10 µM; 72 h

`c1ccc2c(c1)Nc1ccccc1S2` [Phenothiazine] was tested. Which HCT116-GFP viability did it give?
Its HCT116-GFP viability is 24%.

`O=c1c2ccccc2[se]n1-c1ccccc1` [Ebselen] was tested. Which HCT116-GFP viability did it give?
The HCT116-GFP viability was 64.3%.

For `CC(=O)O[C@H]1C[C@@H]2CC[C@@H]3[C@H](CC[C@@]4(C)[C@H]3C[C@H]([N+]3(C)CCCCC3)[C@@H]4OC(C)=O)[C@@]2(C)C[C@@H]1[N+]1(C)CCCCC1` [Pancuronium bromide], which HCT116-GFP viability is on record?
Its HCT116-GFP viability is 29.2%.

With `CCCC(C)C1(CC)C(=O)NC(=O)NC1=O` (stereo unspecified) [Pentobarbital] as the molecule, how does the HCT116-GFP viability read?
The HCT116-GFP viability was 42.3%.

With `C=CCN1CC[C@]23c4c5ccc(O)c4O[C@H]2C(=O)CC[C@@]3(O)[C@H]1C5` [Naloxone hydrochloride] as the molecule, how does the HCT116-GFP viability read?
The HCT116-GFP viability was 38.7%.

For `C[C@]12CCC(=O)C=C1C=C[C@@H]1[C@@H]2CC[C@@]2(C)[C@H]1CC[C@@]2(O)CCC(=O)O` [Canrenoic acid potassium salt], which HCT116-GFP viability is on record?
Its HCT116-GFP viability is 48.9%.

How did the HCT116-GFP viability turn out when `C(#CCN1CCCC1)CN1CCCC1` [Tremorine dihydrochloride] was run?
Its HCT116-GFP viability is 36.2%.

With `CN1[C@@H]2C[C@@H](OC(=O)[C@H](CO)c3ccccc3)C[C@H]1[C@@H]1O[C@@H]12` [Scopolamine hydrochloride] as the molecule, how does the HCT116-GFP viability read?
The HCT116-GFP viability was 72.6%.

`C#C[C@]1(O)CC[C@H]2[C@@H]3CCC4=CC(=O)CCC4=C3C=C[C@@]21CC` [Gestrinone] was tested. Which HCT116-GFP viability did it give?
The HCT116-GFP viability was 47.9%.

For `N[C@@H]1C[C@H]1c1ccccc1` [Tranylcypromine hydrochloride], which HCT116-GFP viability is on record?
The HCT116-GFP viability was 47.8%.

`NCC(CC(=O)O)c1ccc(Cl)cc1` (racemic) [Baclofen (R,S)] was tested. Which HCT116-GFP viability did it give?
Its HCT116-GFP viability is 37.4%.

`O=C1CC[C@@]2(O)[C@H]3Cc4ccc(O)c5c4[C@@]2(CCN3CC2CC2)[C@H]1O5` [Naltrexone hydrochloride dihydrate] was tested. Which HCT116-GFP viability did it give?
Its HCT116-GFP viability is 52.5%.

How did the HCT116-GFP viability turn out when `CN[C@@H]1[C@@H](O)[C@@H](O[C@@H]2[C@@H](O)[C@H](O[C@H]3O[C@H](CN)CC[C@H]3N)[C@@H](N)C[C@H]2N)OC[C@]1(C)O.CN[C@@H]1[C@@H](O)[C@@H](O[C@@H]2[C@@H](O)[C@H](O[C@H]3O[C@H]([C@@H](C)N)CC[C@H]3N)[C@@H](N)C[C@H]2N)OC[C@]1(C)O.CN[C@@H]1[C@@H](O)[C@@H](O[C@@H]2[C@@H](O)[C@H](O[C@H]3O[C@H]([C@@H](C)NC)CC[C@H]3N)[C@@H](N)C[C@H]2N)OC[C@]1(C)O` [Gentamicine sulfate] was run?
The HCT116-GFP viability was 52.1%.

With `CC(NC(C)(C)C)C(=O)c1cccc(Cl)c1` (stereo unspecified) [Bupropion hydrochloride] as the molecule, how does the HCT116-GFP viability read?
The HCT116-GFP viability was 36.5%.

Which HCT116-GFP viability does the source give for `CN1CCC2(C)c3cc(O)ccc3N(C)C12` (single isomer, unassigned; (-)) [(-)-Eseroline fumarate salt] here?
Its HCT116-GFP viability is 35.3%.

With `CC[C@@H](CO)NC(=O)[C@@H]1C=C2c3cccc4[nH]cc(c34)C[C@H]2N(C)C1` [Methylergometrine maleate] as the molecule, how does the HCT116-GFP viability read?
The HCT116-GFP viability was 44.7%.
